Measurements taken from article PMC13140326.
Results are given in words; binding and its absence hold for the method and conditions named. In cells and extracts the contact can be indirect. For some assays here: Binding can be weak; no strength is given. Tags and fused reporters may be left off the sequences shown.

B1: PPDK2 in the pRTVcVC vector (BiFC fusion) (enzyme, UniProt Q42368 1-883)
chain: MAPAPCGRSSQRVFHFGKGKSEGNKNMKELLGGKGANLAEMASIGLSVPPGFTVSTEACQQYQEAGRALPPGLWAEVLDGLRWVEEYMGAALGDPRRPLLLSVRSGAAVSMPGMMDTVLNLGLNDQVAAGLAAKSGDRFAYDSFRRFLDMFGNVVMDIPHALFEEKLEAMKKAKGLKNDTDLTATDLKELVSQYKNVYVEAKGEPFPSDPKRQLELAVLAVFDSWESPRAKKYRSINQITGLRGTAVNVQCMVFGNMGNTSGTGVLFTRNPNTGEKKLYGEFLVNAQGEDVVAGIRTPEDLDAMKDVMPQAYKELVENCRILESHYKEMQDIEFTVQESRLWMLQCRTGKRTGKSAVKIAVDMVNEGLVERRAAIKMVEPGHLDQLLHPQFENPSAYKDQVIATGLPASPGAAVGQVVFTAEDAETWHSQGKSVILVRAETSPEDVGGMHAAAGILTERGGMTSHAAVVARGWGKCCVSGCSGIRVNDAEKVVKIGGNVLREGEWLSLNGSTGEVILGKQPLSPPALSGDLGTFMSWVDDVRKLKVLANADTPEDALAARNNGAEGIGLCRTEHMFFASDERIKAVRQMIMAPTVELRQQALDRLLPYQRSDFEGIFRAMDGLSVTIRLLDPPLHEFLPEGNVEEIVRELCSETGANQEDALARIEKLSEVNPMLGFRGCRLGISYPELTEMQARAIFEAAIAMTNQGVQVFPEIMVPLVGTPQELGHQVALIRQVANKVFTSMGKTIGYKIGTMIEIPRAALVADEIAEQAEFFSFGTNDLTQMTFGYSRDDVGKFIPIYLAQGILQHDPFEVLDQRGVGELVKLATERGRKARPNLKVGICGEHGGEPSSVAFFAKTGLDYVSCSPFRVPIARLAAAQVLV
B2: PPDK2 in the pCAMBIA1300-cLuc vector (LCI fusion) (enzyme, UniProt Q42368 1-883)
chain: B1 chain
B3: GBSSI in the pRTVcVC vector (BiFC fusion) (enzyme, UniProt P04713 73-605)
chain: ASAGMNVVFVGAEMAPWSKTGGLGDVLGGLPPAMAANGHRVMVVSPRYDQYKDAWDTSVVSEIKMGDGYETVRFFHCYKRGVDRVFVDHPLFLERVWGKTEEKIYGPVAGTDYRDNQLRFSLLCQAALEAPRILSLNNNPYFSGPYGEDVVFVCNDWHTGPLSCYLKSNYQSHGIYRDAKTAFCIHNISYQGRFAFSDYPELNLPERFKSSFDFIDGYEKPVEGRKINWMKAGILEADRVLTVSPYYAEELISGIARGCELDNIMRLTGITGIVNGMDVSEWDPSRDKYIAVKYDVSTAVEAKALNKEALQAEVGLPVDRNIPLVAFIGRLEEQKGPDVMAAAIPQLMEMVEDVQIVLLGTGKKKFERMLMSAEEKFPGKVRAVVKFNAALAHHIMAGADVLAVTSRFEPCGLIQLQGMRYGTPCACASTGGLVDTIIEGKTGFHMGRLSVDCNVVEPADVKKVATTLQRAIKVVGTPAYEEMVRNCMIQDLSWKGPAKNWENVLLSLGVAGGEPGVEGEEIAPLAKENVAAP
B4: GBSSI in the pCAMBIA1300-cLuc vector (LCI fusion) (enzyme, UniProt P04713 73-605)
chain: B3 chain
B5: Opaque 2 (O2) in the pRTVcVC vector (BiFC fusion) (protein, UniProt P12959 1-453)
chain: MEHVISMEEILGPFWELLPPPAPEPEREQPPVTGIVVGSVIDVAAAGHGDGDMMDQQHATEWTFERLLEEEALTTSTPPPVVVVPNSCCSGALNADRPPVMEEAVTMAPAAVSSAVVGDPMEYNAILRRKLEEDLEAFKMWRADSSVVTSDQRSQGSNNHTGGSSIRNNPVQNKLMNGEDPINNNHAQTAGLGVRLATSSSSRDPSPSDEDMDGEVEILGFKMPTEERVRKKESNRESARRSRYRKAAHLKELEDQVAQLKAENSCLLRRIAALNQKYNDANVDNRVLRADMETLRAKVKMGEDSLKRVIEMSSSVPSSMPISAPTPSSDAPVPPPPIRDSIVGYFSATAADDDASVGNGFLRLQAHQEPASMVVGGTLSATEMNRVAAATHCAGAMELIQTAMGSMPPTSASGSTPPPQIMSCWVQMGPYTWTCIRHCGFRDRWEHFICRRR
B6: Opaque 2 (O2) in the pCAMBIA1300-cLuc vector (LCI fusion) (protein, UniProt P12959 1-453)
chain: B5 chain

Assays:
[1] = target: ZmSnRK2.10 in the pRTVcVN vector (BiFC fusion) (maize); assay: split reporter; BiFC in maize leaf protoplasts; ZmSnRK2.8/2.10 in pRTVcVN, partners in pRTVcVC; 5 ug of each plasmid; YFP signal after 24 h in the dark
[2] = target: ZmSnRK2.10 in the pCAMBIA1300-nLuc vector (LCI fusion) (maize); assay: split reporter; luciferase complementation imaging (LCI) in N. benthamiana leaves; ZmSnRK2.8/2.10 in pCAMBIA1300-nLuc, partners in pCAMBIA1300-cLuc; imaged after 2 days
[3] = target: ZmSnRK2.8 in the pRTVcVN vector (BiFC fusion) (maize); assay: split reporter; BiFC in maize leaf protoplasts; ZmSnRK2.8/2.10 in pRTVcVN, partners in pRTVcVC; 5 ug of each plasmid; YFP signal after 24 h in the dark
[4] = target: ZmSnRK2.8 in the pCAMBIA1300-nLuc vector (LCI fusion) (maize); assay: split reporter; luciferase complementation imaging (LCI) in N. benthamiana leaves; ZmSnRK2.8/2.10 in pCAMBIA1300-nLuc, partners in pCAMBIA1300-cLuc; imaged after 2 days

| Binder | binding [1] | binding [2] | further results |
| --- | --- | --- | --- |
| B1 | binds | – | – |
| B2 | – | binds | – |
| B3 | binds | – | – |
| B4 | – | binds | – |
| B5 | no binding | – | binding [3]: no binding |
| B6 | – | no binding | binding [4]: no binding |
